Laboratory results as given in patent US9902736B2, “1-oxo/acylation-14-acylated oridonin derivative, preparation method therefor and application thereof” (HANGZHOU BENSHENG PHARMACEUTICAL CO., LTD., priority 2012, dated 2018).
Some of these results come from one statement about several compounds together.

Columns and labels:
Assay type in all cases: cell-based, human
[1] = test system: MG-63; experiment: Solid tumor cell growth inhibition, MTT, 72 h; settings: in comparison with oridonin
Method: (§1) 6000 well-growing human solid tumor cells were obtained and inoculated into wells of a 96-well cell culture plate. The culture medium was DMEM High Glucose cell culture medium containing 10% fetal bovine serum. The plate was placed in a carbon dioxide cell incubator (5% CO2) at 37° C. and incubated for 24 hours. After added with 1-oxo/acylated-14-acylated oridonin derivatives of different concentration and mixed uniformly, the plate was placed in a carbon dioxide cell incubator (5% CO2) at 37° C. and incubated for 72 hours. Then the viable cell concentration was determined by MTT method.

[2] = test system: Becap-37; experiment: Solid tumor cell growth inhibition, MTT, 72 h; settings: in comparison with oridonin
Method: as §1

[3] = test system: CaEs-17; experiment: Solid tumor cell growth inhibition, MTT, 72 h; settings: in comparison with oridonin
Method: as §1

[4] = test system: PANC-1; experiment: Solid tumor cell growth inhibition, MTT, 72 h; settings: in comparison with oridonin
Method: as §1

[5] = test system: Hep G2; experiment: Solid tumor cell growth inhibition, MTT, 72 h; settings: in comparison with oridonin
Method: as §1

[6] = test system: RKO; experiment: Solid tumor cell growth inhibition, MTT, 72 h; settings: in comparison with oridonin
Method: as §1

[7] = test system: Kasumi-1; experiment: Leukemia cell growth inhibition, MTT, 72 h; settings: as compared with oridonin
Description: (§2) Leukemia cell lines: leukemia cell lines: K562/adr (drug-resistant, chronic myeloid leukemia, CML), NB4 (acute promyelocytic leukemia, AML), Kasumi-1 (acute myeloid leukemia M2 type, AML-M2), Jurkat (acute lymphoblastic leukemia, ALL), all of which were donated by Cancer Research Institute of Zhejiang University, China; and H9 (acute lymphoblastic leukemia, ALL), which was purchased from China Center for Type Culture Collection.
(§3) 6000 well-growing leukemia cells were obtained and inoculated into wells of a 96-well cell culture plate. […] On the next day, the 1-oxo/acylated-14-acylated oridonin derivatives of different concentrations were added and mixed uniformly. The plate was placed in a carbon dioxide cell incubator (5% CO2) at 37° C. and was incubated for 72 hours. Then the viable cell concentration was determined by MTT method.

[8] = test system: PC-3; experiment: Solid tumor cell growth inhibition, MTT, 72 h; settings: in comparison with oridonin
Method: as §1

[9] = test system: RPMI 8226; experiment: Multiple myeloma cell growth inhibition, MTT, 72 h; settings: as compared with oridonin
Method: Multiple myeloma cell lines: RPMI8226 (multiple myeloma), purchased from Fuxiang Bio-tech Co. Ltd., Shanghai, China.
as §3, with “well-growing” for “well-growing leukemia”, “and” for “and was”

[10] = test system: SK-OV-3; experiment: Solid tumor cell growth inhibition, MTT, 72 h; settings: in comparison with oridonin
Method: as §1

[11] = test system: Jurkat; experiment: Leukemia cell growth inhibition, MTT, 72 h; settings: as compared with oridonin
Description: as §2, §3

[12] = test system: K562/ADR; experiment: Leukemia cell growth inhibition, MTT, 72 h; settings: as compared with oridonin
Description: as §2, §3

Structure (SMILES) | anti-MG-63 activity increased [1] | anti-Becap-37 activity increased [2] | anti-CaEs-17 activity increased [3] | anti-PANC-1 cell line activity increased [4] | anti-Hep G2 cell line activity increased [5] | anti-RKO activity increased [6] | anti-Kasumi-1 cell line activity increased [7] | anti-PC-3 activity increased [8] | anti-RPMI8226 cell activity increased [9] | anti-SK-OV-3 activity increased [10] | anti-Jurkat cell line activity increased [11] | anti-K562/adr cell line activity increased [12]
C=C1C(=O)[C@]23[C@H](OC(=O)c4ccc(C)cc4)[C@H]1CC[C@H]2[C@@]12CO[C@@]3(O)[C@@H](O)[C@@H]1C(C)(C)CCC2=O [BS-OR-004] | more than 5 fold | more than 7 fold | more than 3 fold | 7- to 8 fold | 7- to 8 fold | more than 7 fold | more than 3 fold | – | – | – | – | –
C=C1C(=O)[C@]23[C@H](OC(=O)c4ccc(OC)cc4)[C@H]1CC[C@H]2[C@@]12CO[C@@]3(O)[C@@H](O)[C@@H]1C(C)(C)CCC2=O [BS-OR-005] | more than 5 fold | more than 7 fold | more than 3 fold | 7- to 8 fold | 7- to 8 fold | more than 7 fold | more than 3 fold | more than 5 fold | more than 9 fold | – | – | –
C=C1C(=O)[C@]23[C@H](OC(=O)c4ccc(Cl)cc4)[C@H]1CC[C@H]2[C@@]12CO[C@@]3(O)[C@@H](O)[C@@H]1C(C)(C)CCC2=O [BS-OR-010] | – | – | – | – | – | – | – | – | more than 9 fold | – | – | –
C=C1C(=O)[C@]23[C@H](OC(=O)/C=C/c4ccccc4)[C@H]1CC[C@H]2[C@@]12CO[C@@]3(O)[C@@H](O)[C@@H]1C(C)(C)CCC2=O [BS-OR-019] | more than 5 fold | – | more than 3 fold | – | – | – | – | – | – | – | – | –
C=C1C(=O)[C@]23[C@H](OC(=O)c4ccc(Cl)cc4)[C@H]1CC[C@H]2[C@@]12CO[C@@]3(O)[C@@H](O)[C@@H]1C(C)(C)CC[C@@H]2OC(C)=O [BS-OR-093] | – | – | more than 3 fold | – | – | – | 3- to 4 fold | – | more than 9 fold | more than 7 fold | 3- to 4 fold | 3- to 4 fold
